Experimental data published in patent US20170058032A1 (published 2017).
No constants are given. Whether binding was seen depends on the method and setting. Some entries that bind do so weakly or less than the wild type.

The chains behind the UniProt entries cited, without tags or fusion partners. Where a name states a change or a piece, a line headed by the entry shows the natural chain unless it says otherwise.
UniProt P40259: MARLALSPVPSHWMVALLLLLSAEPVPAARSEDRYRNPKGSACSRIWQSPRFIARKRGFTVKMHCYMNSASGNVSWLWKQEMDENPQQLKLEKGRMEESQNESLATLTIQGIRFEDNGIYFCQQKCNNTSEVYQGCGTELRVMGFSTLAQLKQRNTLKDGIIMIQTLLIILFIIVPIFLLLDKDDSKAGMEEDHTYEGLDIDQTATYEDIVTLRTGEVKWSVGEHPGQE

B1: huMA79b graft variant, SEQ ID NO: 79 (Fab, name in Kabat numbering, V domains shown)
VH: EVQLVESGGGLVQPGGSLRLSCAASGYPFRSYWISWVRQAPGKGLEWVGEILPGGGDTNYNEIFKGRFTISADTSKNTAYLQMNSLRAEDTAVYYCTRRVPVYFDYWGQGTLVTVSS
VL: DIQMTQSPSSLSASVGDRVTITCKASQSVDYDGDSFLNWYQQKPGKAPKLLIYAASNLESGVPSRFSGSGSGTDFTLTISSLQPEDFATYYCQQSNEDPLTFGQGTKVEIKR
B2: huMA79b graft variant, SEQ ID NO: 91 (V98I) (Fab, name in Kabat numbering, V domains shown)
VH: EVQLVESGGGLVQPGGSLRLSCAASGYTFSSYWIEWVRQAPGKGLEWVGEILPGGGDTNYNEIFKGRFTISADTSKNTAYLQMNSLRAEDTAVYYCTRRVPIYFDYWGQGTLVTVSS
VL: DIQMTQSPSSLSASVGDRVTITCKASQSVDYDGDSFLNWYQQKPGKAPKLLIYAASNLESGVPSRFSGSGSGTDFTLTISSLQPEDFATYYCQQSNEDPLTFGQGTKVEIKR
B3: huMA79b graft variant, SEQ ID NO: 85 (Fab, name in Kabat numbering, V domains shown)
VH: EVQLVESGGGLVQPGGSLRLSCAASGFPFTSYWISWVRQAPGKGLEWVGEILPGGGDTNYNEIFKGRFTISADTSKNTAYLQMNSLRAEDTAVYYCTRRVPVYFDYWGQGTLVTVSS
VL: DIQMTQSPSSLSASVGDRVTITCKASQSVDYDGDSFLNWYQQKPGKAPKLLIYAASNLESGVPSRFSGSGSGTDFTLTISSLQPEDFATYYCQQSNEDPLTFGQGTKVEIKR
B4: huMA79b graft variant, SEQ ID NO: 102 (Fab, name in Kabat numbering, V domains shown)
VH: EVQLVESGGGLVQPGGSLRLSCAASGYTFSSYWIEWVRQAPGKGLEWVGEILPGGGDTNYNEIFKGRFTISADTSKNTAYLQMNSLRAEDTAVYYCTRRVPVFLDYWGQGTLVTVSS
VL: DIQMTQSPSSLSASVGDRVTITCKASQSVDYDGDSFLNWYQQKPGKAPKLLIYAASNLESGVPSRFSGSGSGTDFTLTISSLQPEDFATYYCQQSNEDPLTFGQGTKVEIKR
B5: huMA79b graft variant, SEQ ID NO: 99 (Fab, name in Kabat numbering, V domains shown)
VH: EVQLVESGGGLVQPGGSLRLSCAASGYTFSSYWIEWVRQAPGKGLEWVGEILPGGGDTNYNEIFKGRFTISADTSKNTAYLQMNSLRAEDTAVYYCTRRVPVVLDYWGQGTLVTVSS
VL: DIQMTQSPSSLSASVGDRVTITCKASQSVDYDGDSFLNWYQQKPGKAPKLLIYAASNLESGVPSRFSGSGSGTDFTLTISSLQPEDFATYYCQQSNEDPLTFGQGTKVEIKR
B6: huMA79b graft variant, SEQ ID NO: 92 (Fab, name in Kabat numbering, V domains shown)
VH: EVQLVESGGGLVQPGGSLRLSCAASGYTFSSYWIEWVRQAPGKGLEWVGEILPGGGDTNYNEIFKGRFTISADTSKNTAYLQMNSLRAEDTAVYYCTRRVPFCLDYWGQGTLVTVSS
VL: DIQMTQSPSSLSASVGDRVTITCKASQSVDYDGDSFLNWYQQKPGKAPKLLIYAASNLESGVPSRFSGSGSGTDFTLTISSLQPEDFATYYCQQSNEDPLTFGQGTKVEIKR
B7: huMA79b graft variant, SEQ ID NO: 90 (F100L) (Fab, name in Kabat numbering, V domains shown)
VH: EVQLVESGGGLVQPGGSLRLSCAASGYTFSSYWIEWVRQAPGKGLEWVGEILPGGGDTNYNEIFKGRFTISADTSKNTAYLQMNSLRAEDTAVYYCTRRVPVYLDYWGQGTLVTVSS
VL: DIQMTQSPSSLSASVGDRVTITCKASQSVDYDGDSFLNWYQQKPGKAPKLLIYAASNLESGVPSRFSGSGSGTDFTLTISSLQPEDFATYYCQQSNEDPLTFGQGTKVEIKR
B8: huMA79b graft variant, SEQ ID NO: 81 (Fab, name in Kabat numbering, V domains shown)
VH: EVQLVESGGGLVQPGGSLRLSCAASGYPFRGYWIEWVRQAPGKGLEWVGEILPGGGDTNYNEIFKGRFTISADTSKNTAYLQMNSLRAEDTAVYYCTRRVPVYFDYWGQGTLVTVSS
VL: DIQMTQSPSSLSASVGDRVTITCKASQSVDYDGDSFLNWYQQKPGKAPKLLIYAASNLESGVPSRFSGSGSGTDFTLTISSLQPEDFATYYCQQSNEDPLTFGQGTKVEIKR
B9: huMA79b graft variant, SEQ ID NO: 87 (V98I and F100L) (Fab, name in Kabat numbering, V domains shown)
VH: EVQLVESGGGLVQPGGSLRLSCAASGYTFSSYWIEWVRQAPGKGLEWVGEILPGGGDTNYNEIFKGRFTISADTSKNTAYLQMNSLRAEDTAVYYCTRRVPIYLDYWGQGTLVTVSS
VL: DIQMTQSPSSLSASVGDRVTITCKASQSVDYDGDSFLNWYQQKPGKAPKLLIYAASNLESGVPSRFSGSGSGTDFTLTISSLQPEDFATYYCQQSNEDPLTFGQGTKVEIKR
B10: huMA79b graft variant, SEQ ID NO: 89 (Fab, name in Kabat numbering, V domains shown)
VH: EVQLVESGGGLVQPGGSLRLSCAASGYTFSSYWIEWVRQAPGKGLEWVGEILPGGGDTNYNEIFKGRFTISADTSKNTAYLQMNSLRAEDTAVYYCTRRVPVKLDYWGQGTLVTVSS
VL: DIQMTQSPSSLSASVGDRVTITCKASQSVDYDGDSFLNWYQQKPGKAPKLLIYAASNLESGVPSRFSGSGSGTDFTLTISSLQPEDFATYYCQQSNEDPLTFGQGTKVEIKR
B11: huMA79b graft variant, SEQ ID NO: 98 (D101S) (Fab, name in Kabat numbering, V domains shown)
VH: EVQLVESGGGLVQPGGSLRLSCAASGYTFSSYWIEWVRQAPGKGLEWVGEILPGGGDTNYNEIFKGRFTISADTSKNTAYLQMNSLRAEDTAVYYCTRRVPVYFSYWGQGTLVTVSS
VL: DIQMTQSPSSLSASVGDRVTITCKASQSVDYDGDSFLNWYQQKPGKAPKLLIYAASNLESGVPSRFSGSGSGTDFTLTISSLQPEDFATYYCQQSNEDPLTFGQGTKVEIKR
B12: huMA79b graft variant, SEQ ID NO: 101 (Y99R) (Fab, name in Kabat numbering, V domains shown)
VH: EVQLVESGGGLVQPGGSLRLSCAASGYTFSSYWIEWVRQAPGKGLEWVGEILPGGGDTNYNEIFKGRFTISADTSKNTAYLQMNSLRAEDTAVYYCTRRVPVRFDYWGQGTLVTVSS
VL: DIQMTQSPSSLSASVGDRVTITCKASQSVDYDGDSFLNWYQQKPGKAPKLLIYAASNLESGVPSRFSGSGSGTDFTLTISSLQPEDFATYYCQQSNEDPLTFGQGTKVEIKR
B13: huMA79b graft variant, SEQ ID NO: 84 (Fab, name in Kabat numbering, V domains shown)
VH: EVQLVESGGGLVQPGGSLRLSCAASGYNVSSYWLSWVRQAPGKGLEWVGEILPGGGDTNYNEIFKGRFTISADTSKNTAYLQMNSLRAEDTAVYYCTRRVPVYFDYWGQGTLVTVSS
VL: DIQMTQSPSSLSASVGDRVTITCKASQSVDYDGDSFLNWYQQKPGKAPKLLIYAASNLESGVPSRFSGSGSGTDFTLTISSLQPEDFATYYCQQSNEDPLTFGQGTKVEIKR
B14: huMA79b graft variant, SEQ ID NO: 95 (Fab, name in Kabat numbering, V domains shown)
VH: EVQLVESGGGLVQPGGSLRLSCAASGYTFSSYWIEWVRQAPGKGLEWVGEILPGGGDTNYNEIFKGRFTISADTSKNTAYLQMNSLRAEDTAVYYCTRRVPIKLDYWGQGTLVTVSS
VL: DIQMTQSPSSLSASVGDRVTITCKASQSVDYDGDSFLNWYQQKPGKAPKLLIYAASNLESGVPSRFSGSGSGTDFTLTISSLQPEDFATYYCQQSNEDPLTFGQGTKVEIKR
B15: huMA79b graft variant, SEQ ID NO: 83 (Fab, name in Kabat numbering, V domains shown)
VH: EVQLVESGGGLVQPGGSLRLSCAASGYPFNGYWINWVRQAPGKGLEWVGEILPGGGDTNYNEIFKGRFTISADTSKNTAYLQMNSLRAEDTAVYYCTRRVPVYFDYWGQGTLVTVSS
VL: DIQMTQSPSSLSASVGDRVTITCKASQSVDYDGDSFLNWYQQKPGKAPKLLIYAASNLESGVPSRFSGSGSGTDFTLTISSLQPEDFATYYCQQSNEDPLTFGQGTKVEIKR
B16: huMA79b graft variant, SEQ ID NO: 100 (Fab, name in Kabat numbering, V domains shown)
VH: EVQLVESGGGLVQPGGSLRLSCAASGYTFSSYWIEWVRQAPGKGLEWVGEILPGGGDTNYNEIFKGRFTISADTSKNTAYLQMNSLRAEDTAVYYCTRRVPVRLDYWGQGTLVTVSS
VL: DIQMTQSPSSLSASVGDRVTITCKASQSVDYDGDSFLNWYQQKPGKAPKLLIYAASNLESGVPSRFSGSGSGTDFTLTISSLQPEDFATYYCQQSNEDPLTFGQGTKVEIKR
B17: huMA79b graft variant, SEQ ID NO: 86 (Fab, name in Kabat numbering, V domains shown)
VH: EVQLVESGGGLVQPGGSLRLSCAASGFPFNRYWINWVRQAPGKGLEWVGEILPGGGDTNYNEIFKGRFTISADTSKNTAYLQMNSLRAEDTAVYYCTRRVPVYFDYWGQGTLVTVSS
VL: DIQMTQSPSSLSASVGDRVTITCKASQSVDYDGDSFLNWYQQKPGKAPKLLIYAASNLESGVPSRFSGSGSGTDFTLTISSLQPEDFATYYCQQSNEDPLTFGQGTKVEIKR
B18: huMA79b graft variant, SEQ ID NO: 96 (Fab, name in Kabat numbering, V domains shown)
VH: EVQLVESGGGLVQPGGSLRLSCAASGYTFSSYWIEWVRQAPGKGLEWVGEILPGGGDTNYNEIFKGRFTISADTSKNTAYLQMNSLRAEDTAVYYCTRRVPIRFDYWGQGTLVTVSS
VL: DIQMTQSPSSLSASVGDRVTITCKASQSVDYDGDSFLNWYQQKPGKAPKLLIYAASNLESGVPSRFSGSGSGTDFTLTISSLQPEDFATYYCQQSNEDPLTFGQGTKVEIKR
B19: huMA79b graft variant, SEQ ID NO: 105 (Fab, name in Kabat numbering, V domains shown)
VH: EVQLVESGGGLVQPGGSLRLSCAASGYTFSSYWIEWVRQAPGKGLEWVGEILPGGGDTNYNEIFKGRFTISADTSKNTAYLQMNSLRAEDTAVYYCTRRRPVCLDYWGQGTLVTVSS
VL: DIQMTQSPSSLSASVGDRVTITCKASQSVDYDGDSFLNWYQQKPGKAPKLLIYAASNLESGVPSRFSGSGSGTDFTLTISSLQPEDFATYYCQQSNEDPLTFGQGTKVEIKR
B20: huMA79b graft variant, SEQ ID NO: 80 (Fab, name in Kabat numbering, V domains shown)
VH: EVQLVESGGGLVQPGGSLRLSCAASGYPFRSYWINWVRQAPGKGLEWVGEILPGGGDTNYNEIFKGRFTISADTSKNTAYLQMNSLRAEDTAVYYCTRRVPVYFDYWGQGTLVTVSS
VL: DIQMTQSPSSLSASVGDRVTITCKASQSVDYDGDSFLNWYQQKPGKAPKLLIYAASNLESGVPSRFSGSGSGTDFTLTISSLQPEDFATYYCQQSNEDPLTFGQGTKVEIKR
B21: huMA79b graft variant, SEQ ID NO: 82 (Fab, name in Kabat numbering, V domains shown)
VH: EVQLVESGGGLVQPGGSLRLSCAASGYPFNRYWIEWVRQAPGKGLEWVGEILPGGGDTNYNEIFKGRFTISADTSKNTAYLQMNSLRAEDTAVYYCTRRVPVYFDYWGQGTLVTVSS
VL: DIQMTQSPSSLSASVGDRVTITCKASQSVDYDGDSFLNWYQQKPGKAPKLLIYAASNLESGVPSRFSGSGSGTDFTLTISSLQPEDFATYYCQQSNEDPLTFGQGTKVEIKR

Biological target: extracellular domain of human CD79b (huCD79becd) (human) (UniProt P40259)
Assay: phage selection on plate-bound antigen

binding, binds:
B1
B2
B3
B4
B5
B6
B7
B8
B9
B10
B11
B12
B13
B14
B15
B16
B17
B18
B19
B20
B21
